Laboratory results: PubChem BioAssay AID686943 (Drosophila RNAi Screening Center, 2013)

Aim: 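Fly genes whose loss alters ERK activation after insulin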 (primary screen)
System: Drosophila S2R+ haemocyte-like cells expressing YFP-tagged ERK (Rolled)
Knock-down reagent: long dsRNA against Drosophila genes
Treatment: insulin stimulation versus unstimulated cells; dose and duration not given
Measured: 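Per-plate z-scores of phospho-ERK immunostaining normalised to YFP-tagged ERK, measured with and without insulin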
Reading the numbers: replicate 1, z-score of dpERK with insulin: higher = more active ERK per ERK-YFP after insulin
The deposit covers about 23,000 reagents; this is a random part of those with a known target gene and a result. 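Extra replicates exist only for a retested subset of genes; insulin dose and duration not given; both raised and lowered dpERK matter.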 Names joined by + are all predicted targets of the reagent. Not all columns of the deposit are shown. Not stated in the record: the amount of reagent, the time to read-out.

Which result is listed for Ance-2 [DRSC02539]?
replicate 1, z-score of dpERK with insulin: -0.68

For Stt3A [DRSC20514], what does the deposit list?
replicate 1, z-score of dpERK with insulin: 0.35

What is on record for Sf3a1 [DRSC15166]?
replicate 1, z-score of dpERK with insulin: 4.58

With CG5087 [DRSC10479], what was measured?
replicate 1, z-score of dpERK with insulin: 0.5

What is on record for lilli [DRSC00708]?
replicate 1, z-score of dpERK with insulin: 2.78

With CG11594 [DRSC08207], what was measured?
replicate 1, z-score of dpERK with insulin: -0.23

With RYa-R [DRSC16757], what was measured?
replicate 1, z-score of dpERK with insulin: 0.14

With CG15635 [DRSC00470], how do the results read?
replicate 1, z-score of dpERK with insulin: 0.54

With CG15635 [DRSC22873], what was measured?
replicate 1, z-score of dpERK with insulin: 1.09

For cn [DRSC07594], what does the deposit list?
replicate 1, z-score of dpERK with insulin: -0.75

For Gfat1 [DRSC21219], what does the deposit list?
replicate 1, z-score of dpERK with insulin: -0.22

How did the screen score Rpt6 [DRSC20571]?
replicate 1, z-score of dpERK with insulin: -0.38

Which result is listed for CG31010 [DRSC14006]?
replicate 1, z-score of dpERK with insulin: 0.16

How did the screen score CG9497 [DRSC03234]?
replicate 1, z-score of dpERK with insulin: 0.67

With KCNQ [DRSC06121], what was measured?
replicate 1, z-score of dpERK with insulin: 0.58

With KCNQ [DRSC06230], what was measured?
replicate 1, z-score of dpERK with insulin: -0.58

For RtcB [DRSC03280], what does the deposit list?
replicate 1, z-score of dpERK with insulin: 0.74

What did the screen give for CAH14 [DRSC04234]?
replicate 1, z-score of dpERK with insulin: 0.85

For CAH14 [DRSC22160], what was measured?
replicate 1, z-score of dpERK with insulin: 0.17

With CheA29a [DRSC21486], what was measured?
replicate 1, z-score of dpERK with insulin: -0.16

For CG6980 [DRSC16162], how do the results read?
replicate 1, z-score of dpERK with insulin: 0.36

For Exd2 [DRSC16105], how do the results read?
replicate 1, z-score of dpERK with insulin: 0.51

What is on record for ed [DRSC00350]?
replicate 1, z-score of dpERK with insulin: -0.02

For ed [DRSC00438], what was measured?
replicate 1, z-score of dpERK with insulin: -0.29

For ed [DRSC00439], what was measured?
replicate 1, z-score of dpERK with insulin: -0.88

Which result is listed for ed [DRSC00478]?
replicate 1, z-score of dpERK with insulin: -0.1

For Ance-4 [DRSC07104], how do the results read?
replicate 1, z-score of dpERK with insulin: 0.15

With Impbeta11 + asRNA:CR43429 [DRSC07525], what does the deposit list?
replicate 1, z-score of dpERK with insulin: 0.2

What did the screen give for Eig71Eg [DRSC11154]?
replicate 1, z-score of dpERK with insulin: 0.57

What is on record for modSP [DRSC16726]?
replicate 1, z-score of dpERK with insulin: 0.76

For modSP [DRSC16857], how do the results read?
replicate 1, z-score of dpERK with insulin: 0.53

How did the screen score modSP [DRSC21489]?
replicate 1, z-score of dpERK with insulin: -0.83

What did the screen give for Grl62a [DRSC07963]?
replicate 1, z-score of dpERK with insulin: 0.66

For Kdsr [DRSC14245], what does the deposit list?
replicate 1, z-score of dpERK with insulin: -0.26

What did the screen give for gw [DRSC17135]?
replicate 1, z-score of dpERK with insulin: 3.5

For gw [DRSC17160], how do the results read?
replicate 1, z-score of dpERK with insulin: 0.34

How did the screen score CG16727 [DRSC15139]?
replicate 1, z-score of dpERK with insulin: 0.78

With CG31268 [DRSC13203], what does the deposit list?
replicate 1, z-score of dpERK with insulin: -0.5

With CG12662 [DRSC17865], how do the results read?
replicate 1, z-score of dpERK with insulin: 2.53

With spidey [DRSC17932], what does the deposit list?
replicate 1, z-score of dpERK with insulin: 0.28

5 neighbouring reagents from above:
Sf3a1 [DRSC15166]: replicate 1, z-score of dpERK with insulin = 4.58
CG5087 [DRSC10479]: replicate 1, z-score of dpERK with insulin = 0.5
lilli [DRSC00708]: replicate 1, z-score of dpERK with insulin = 2.78
CG11594 [DRSC08207]: replicate 1, z-score of dpERK with insulin = -0.23
RYa-R [DRSC16757]: replicate 1, z-score of dpERK with insulin = 0.14
